PubChem BioAssay AID1259308 – NCATS, 2017
Assay: 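Candidate targets for better recombinant protein yield in mammalian cells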 (primary screen). Cell system: human HEK293 embryonic kidney cells stably expressing firefly luciferase (HEK-CMV-Luc2-Hygro). Knock-down reagent: single siRNA against human genes, 0.8 pmol siRNA per well. Timing: 72 h. Measured: 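Reporter luminescence and viable-cell signal on separate replicate plates, given as percent of non-targeting control and median/MAD z-scores, plus per-cell luciferase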. Direction: total luciferase, z-score and total luciferase, % of control: higher = more reporter protein produced; luciferase per cell, z-score: higher = more reporter output per viable cell; viable cells, % of control: higher = more viable cells. Active means: 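An siRNA counts as active if its total luciferase robust z-score exceeds 3; genes with two or more such siRNAs out of three were retested with fresh siRNAs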. Calls: active = raised luciferase; inactive = no rise.
Shown is a random part of about 59,000 deposited reagents. Of all reagents, about 1,510 (2.6%) are marked active. 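Calls use total luciferase alone and ignore viability, so some active siRNAs may act by altering cell number.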 Entries without a mark were called inactive. Reagents against one gene are numbered here.

Target gene | reagent no. | total luciferase, z-score | total luciferase, % of control | luciferase per cell, z-score | viable cells, % of control
TBX19 | 1 | -0.308 | 75.8 | -0.597 | 99.1
TBX19 | 2 | -0.0849 | 80.2 | -0.472 | 101
TBX19 | 3 | -0.769 | 66.6 | -1.26 | 104
OR13F1 | 1 | 0.472 | 91.3 | 1.63 | 66.4
OR13F1 | 2 | 0.066 | 83.2 | 0.371 | 84.3
OR13F1 | 3 | 0.286 | 87.6 | -0.327 | 107
SYNDIG1 | 1 | 0.783 | 97.5 | 0.121 | 106
SYNDIG1 | 2 | 0.392 | 89.7 | 0.0703 | 98.4
SYNDIG1 | 3 | -0.305 | 75.8 | -0.597 | 99.2
ANKRD55 | 1 | -0.519 | 71.6 | -0.0255 | 80.5
ANKRD55 | 2 | 1.47 | 111 | 1.06 | 93.8
ANKRD55 | 3 | -0.000286 | 81.9 | -0.428 | 102
ZNF791 | 1 | -0.287 | 76.2 | -0.754 | 104
ZNF791 | 2 | 3.81 (active) | 158 | 2.39 | 94.1
ZNF791 | 3 | -0.043 | 81 | 0.237 | 85.1
EXOC1 | 1 | 0.226 | 86.4 | -0.247 | 103
EXOC1 | 2 | -0.121 | 79.5 | 0.779 | 72.3
EXOC1 | 3 | 0.591 | 93.6 | 0.71 | 86.8
VPS25 | 1 | -0.152 | 78.9 | 0.528 | 76.7
VPS25 | 2 | -0.139 | 79.1 | -0.133 | 91.5
VPS25 | 3 | 0.159 | 85 | 0.106 | 92.4
PCDHGB7 | 1 | -0.156 | 78.8 | -1.01 | 115
PCDHGB7 | 2 | -0.647 | 69 | -1.28 | 108
PCDHGB7 | 3 | 0.346 | 88.8 | -0.159 | 103
ATRIP | 1 | 0.831 | 98.4 | -0.275 | 118
ATRIP | 2 | 1.65 | 115 | 1.95 | 76.7
ATRIP | 3 | 1.26 | 107 | 0.357 | 109

7 of these entries, set out differently.
OR13F1 #2 — total luciferase, z-score = 0.066; total luciferase, % of control = 83.2; luciferase per cell, z-score = 0.371; viable cells, % of control = 84.3
OR13F1 #3 — total luciferase, z-score = 0.286; total luciferase, % of control = 87.6; luciferase per cell, z-score = -0.327; viable cells, % of control = 107
SYNDIG1 #1 — total luciferase, z-score = 0.783; total luciferase, % of control = 97.5; luciferase per cell, z-score = 0.121; viable cells, % of control = 106
SYNDIG1 #2 — total luciferase, z-score = 0.392; total luciferase, % of control = 89.7; luciferase per cell, z-score = 0.0703; viable cells, % of control = 98.4
SYNDIG1 #3 — total luciferase, z-score = -0.305; total luciferase, % of control = 75.8; luciferase per cell, z-score = -0.597; viable cells, % of control = 99.2
ANKRD55 #1 — total luciferase, z-score = -0.519; total luciferase, % of control = 71.6; luciferase per cell, z-score = -0.0255; viable cells, % of control = 80.5
ANKRD55 #2 — total luciferase, z-score = 1.47; total luciferase, % of control = 111; luciferase per cell, z-score = 1.06; viable cells, % of control = 93.8

The results go on.
Target gene | reagent no. | total luciferase, z-score | total luciferase, % of control | luciferase per cell, z-score | viable cells, % of control
ADAT2 | 1 | -0.0675 | 80.5 | -0.272 | 96.7
ADAT2 | 2 | -0.865 | 64.7 | -0.514 | 82.7
ADAT2 | 3 | -0.782 | 66.3 | 0.249 | 69.4
CD320 | 1 | 0.84 | 98.6 | 0.474 | 97.2
CD320 | 2 | 0.403 | 89.9 | 0.109 | 97.6
CD320 | 3 | -1.71 | 47.9 | -0.585 | 62.5
PHYHD1 | 1 | -0.0045 | 81.8 | 0.15 | 87.9
PHYHD1 | 2 | -0.248 | 76.9 | 0.304 | 79.4
PHYHD1 | 3 | 1.28 | 107 | 1.7 | 76.7
IPMK | 1 | -0.0726 | 80.4 | -0.0268 | 90.5
IPMK | 2 | 0.927 | 100 | 0.222 | 106
IPMK | 3 | 0.271 | 87.3 | -0.199 | 103
GPHN | 1 | 0.0873 | 83.6 | -0.793 | 115
GPHN | 2 | 1.95 | 121 | 1.12 | 100
GPHN | 3 | -0.371 | 74.5 | -0.902 | 106
KCNQ4 | 1 | -1.08 | 60.3 | -1.89 | 111
KCNQ4 | 2 | 0.241 | 86.7 | 0.723 | 80.1
KCNQ4 | 3 | 0.308 | 88 | 0.116 | 95.4
TMEM143 | 1 | -0.522 | 71.5 | -0.995 | 104
TMEM143 | 2 | -1.37 | 54.6 | -2.19 | 109
TMEM143 | 3 | 1.83 | 118 | 1.6 | 86.7
CAPN8 | 1 | -1.6 | 50 | -1.7 | 87.4
CAPN8 | 2 | 0.534 | 92.5 | 0.187 | 98.4
CAPN8 | 3 | -0.819 | 65.6 | -0.81 | 90.7
CAPN8 | 4 | 2.32 | 128 | 1.85 | 87.9
CAPN8 | 5 | -1.13 | 59.4 | -1.58 | 101
CAPN8 | 6 | -0.487 | 72.2 | -0.457 | 91
BOLL | 1 | -0.135 | 79.2 | -0.707 | 107
BOLL | 2 | -1.16 | 58.8 | -0.164 | 68.6
BOLL | 3 | 0.778 | 97.4 | 0.452 | 96.6
